Reference: patent publication US12473328 (dated 2025)

Assay: peptide synthesis
Settings: for cyclisation yield / step yield / oxidative folding yield: yield of modification; for crude HPLC purity / difficulty met: whole synthesis
[1] = cyclisation step, bicyclic, sequence written open
[2] = oxidative folding step, several disulfide bridges, sequence written open
[3] = oxidative folding step, one disulfide bridge, sequence written open
[4] = cyclisation step, thioether ring, sequence written open

| Substance | purity (crude or final not stated) (lipidation step) | step yield (lipidation step) | crude HPLC purity (UV210) | other results |
| --- | --- | --- | --- | --- |
| H-ACREGFLRCLHRPTVCNG-H2 | – | – | – | purity (crude or final not stated) [1]: 67%; cyclisation yield [1]: >99%; crude HPLC purity (UV210, bicyclic, sequence written open): 60% |
| H-AK(Palm-Glu-OH)EFIAWLVRGRG-NH2 | 83% | 95% | 62% | – |
| H-CCEYCCNPACTGCY-NH2 | – | – | – | final purity (method not given) [2]: 10%; oxidative folding yield [2]: >75% |
| H-CYFQNCPRG-NH2 | – | – | – | final purity (method not given) [3]: 85%; purity (crude or final not stated) [3]: 85%; oxidative folding yield [3]: >95%; crude HPLC purity (UV210, one disulfide bridge, sequence written open): 60%* |
| H-HAEGTFTSDVSSYLEGQAAK(Palm-Glu-OH)EFIAWLVRGRG-OH | 72% | >99% | 7% | – |
| H-HAEGTFTSDVSSYLEGQAAK(Palm-γE-OH)EFIAWLVRGRG-NH2 | 54% | 88% | 30% | – |
| H-HAibFGTFTSDVSSYLEGQAAK(CO2H-Ste-Glu(aeea-aeea-OH)-OH)EFIAWLVRGRG-OH | 67% | >99% | 6% | – |
| H-KCNTATCATQRLANFLVHSSNFGPILPPTNVGSNTY-NH2 | – | – | – | final purity (method not given) [3]: 10%; oxidative folding yield [3]: >99%; difficulty met (one disulfide bridge, sequence written open): traces* |
| H-KEKFSINSEDNNGC(C2H4O-Palm)-NH2 | – | 46% | 55%* | – |
| H-KEKFSINSEDNNGC(C2H40-Palm)-NH2 | – | >98% | 55%* | – |
| H-KEKFSINSEDNNGC(C3H5O2-diPalm)-NH2 | – | – | 67%* | – |
| H-KKKKSC(C2H4O-Palm)-NH2 | – | 39% | 67%* | – |
| H-VRVPGCAHCADSLY-NH2 | – | – | – | purity (crude or final not stated) [4]: 74%; cyclisation yield [4]: >99%; crude HPLC purity (UV210, thioether ring, sequence written open): 56% |
| Myristoyl-GGKWSK(Myristoyl)SSVIGWPAVRER-NH2 | 3% | >99% | – | difficulty met: traces* |
| Palmitoyl-GGKWSK(Palmitoyl)SSVIGWPAVRER-NH2 | 6% | >99% | – | difficulty met: traces* |
| Palmitoyl-SGGK(Palmitoyl)WSK(Palmitoyl)SSVIGWPAVRER-NH2 | 53% | >99% | – | difficulty met: traces* |

Marks after values point to notes of the source that are not given here. The star is where a group is joined. Palmitoyl = CCCCCCCCCCCCCCCC(=O)*; Myristoyl = CCCCCCCCCCCCCC(=O)*
